Results reported in US7648964B2, “Use of lacritin in promoting ocular cell survival” (University of Virginia Patent Foundation, priority 2004, dated 2010).
At least one compound was matched to its structure with a doubt left.

What was measured:
[1] = tested on: human salivary ductal (HSG) cells; experiment: 3H-thymidine uptake mitogenesis assay; type: cell-based; conditions: nifedipine 10 μM
Method: For phosphotyrosine blotting and mitogenesis assays, cells in serum-containing media were seeded overnight in 24-well plates at a density of 0.5×10^5 cells/mm^2 corresponding to 20-30% confluency after cell attachment, incubated in serum-free media without supplements for 24 h (phosphotyrosine) or washed with serum-free media without supplements three times (mitogenesis) and incubated with lacritin (1-1000 nM), or positive controls EGF (1.6 nM) and 10% fetal bovine serum, or negative controls bovine serum albumin or no additive in serum-free media without supplements for the indicated times (phosphotyrosine) or 30 h (mitogenesis). […] After washing, bound antibodies were detected with peroxidase-labeled secondary antibody and ECL. […] Incorporation was stopped with ice-cold phosphate buffered saline and followed by addition of cold and then room temperature trichloracetic acid (10%) for 10 min each, washing of cells with phosphate buffered saline, solubilization with 1 N sodium hydroxide, neutralization with 1 N hydrochloric acid, addition of scintillation fluid and then quantitation in a scintillation counter. […] Seventy-two hours post-transfection, mitogenesis was assessed by co-addition of 10 […] lacritin and [^3H]-thymidine (2 mCi/ml) (Amersham, Piscataway N.J.) for 24 hrs. […]

NFATC1 = NFATC1 translocation in HSG cells (immunofluorescence); type: cell-based, human; conditions: cyclosporine 1 μM; nifedipine 10 μM
Source text: In order to dissect the molecular pathways leading to the cell survival by lacritin, protein kinases and transcriptional factors were studied by Western blotting and immunofluorescence microscopy. […] On the other hand, there were increased activities of transcriptional factors such as nuclear factor of activated T-cells (NFAT) and NF-kappaB. In FIG. 4, translocation of PKC alpha and NFAT was detected by immunofluorescence coupled with confocal microscopic imaging. In resting HSG cells (left three images), PKC alpha distributes mainly in cytosol and membrane. Similarly, NFATc1 was also found to localize largely in cytosol. Cellular co-location of PKC alpha and NFATc1 is apparent upon merging the two immunofluorescent images, as the merged cy3 and FITC labels produce distinctive yellow color.
Images were acquired at 2-3 s intervals using LaserSharp2000 software (Bio-Rad) and store on disc for later analysis. For translocation assays, HSG cells […] phorbol 12-myristate 13-acetate, […], then washed with phosphate-buffered saline, formaldehyde-fixed, blocked with phosphate-buffered saline containing 1% bovine serum albumin and 10% goat serum, incubated with anti-PKCα (C-20) or anti-NFATC1 (mab 7A6) (both from Santa Cruz Biotechnology Inc.; Santa Cruz, Calif.) followed by secondary Cy3-, FITC- or Alexa488-labeled antibodies and confocal microscopic visualization (Bio-Rad Radiance2100).

Compound: COC(=O)C1=C(C)NC(C)=C(C(=O)OC)C1c1ccccc1[N+](=O)[O-] [nifedipine, reference compound]
- effect on lacritin-dependent mitogenesis [1]: did not interfere
- effect on lacritin-dependent NFATC1 translocation (NFATC1): did not interfere
